Patent US20030207400A1 (priority 2003, published 2003)

Assay: general procedure: peptide synthesis; PyBOP, HOBt and DIEA
Conditions: TFA

In the case of “βAla-Pyr-Im-βAla-Pyr-Im-GABA-Pyr-Im-βAla-Pyr-Im”, the step yield (purification step, product recovered vs total product in crude loaded) is reported as 80%, the isolated yield (whole synthesis, run 1) is reported as 28.4% and 16% and the “final HPLC purity” value (whole synthesis, analytical HPLC, run 1) is reported as >95% and 59%.

Where “and” joins values, the source holds several entries; their conditions need not be identical. Equal values may be shown once.
